We go through 1 molecule from article PMC7707610.

Results are given in words; binding and its absence hold for the method and conditions named.

This assay deals with soluble recombinant Der p 2 (rDer p 2) (Dermatophagoides pteronyssinus) (UniProt P49278). The experiment in a line: dynamic light scattering; purified rDer p 2-His in solution; conditions of the measurement not told; both purified.

B1: soluble recombinant Der p 2 (rDer p 2) (protein, UniProt P49278 18-146)
chain: DQVDVKDCANHEIKKVLVPGCHGSEPCIIHRGKPFQLEAVFEANQNTKTAKIEIKASIDGLEVDVPGIDPNACHYMKCPLVKGQQYDIKYTWNVPKIAPKSENVVVTVKVMGDDGVLACAIATHAKIRD
In the case of B1, the binding entry is on record as “no binding”.
